Measurements from article PMC7866192.
No constants are given. Whether binding was seen depends on the method and setting. Binding calls can cover weak binding; strength is not graded here.

The chains behind the UniProt entries cited, without tags or fusion partners. Where a name states a change or a piece, a line headed by the entry shows the natural chain unless it says otherwise.
UniProt A0A8F2YJ43: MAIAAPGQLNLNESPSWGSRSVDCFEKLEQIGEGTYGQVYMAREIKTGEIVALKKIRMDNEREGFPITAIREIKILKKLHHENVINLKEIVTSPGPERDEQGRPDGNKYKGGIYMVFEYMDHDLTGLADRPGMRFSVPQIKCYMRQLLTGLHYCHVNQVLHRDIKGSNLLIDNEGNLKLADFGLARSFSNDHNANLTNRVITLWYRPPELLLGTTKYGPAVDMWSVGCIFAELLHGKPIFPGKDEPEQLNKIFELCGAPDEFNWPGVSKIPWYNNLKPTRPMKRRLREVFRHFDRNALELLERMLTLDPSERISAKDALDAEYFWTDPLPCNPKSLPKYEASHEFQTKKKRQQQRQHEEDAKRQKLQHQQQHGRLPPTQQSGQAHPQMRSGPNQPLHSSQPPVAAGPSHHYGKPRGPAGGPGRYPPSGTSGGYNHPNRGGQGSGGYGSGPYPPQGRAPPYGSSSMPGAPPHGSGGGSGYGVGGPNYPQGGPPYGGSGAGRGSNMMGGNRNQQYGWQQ
UniProt A0A8F2YJ19: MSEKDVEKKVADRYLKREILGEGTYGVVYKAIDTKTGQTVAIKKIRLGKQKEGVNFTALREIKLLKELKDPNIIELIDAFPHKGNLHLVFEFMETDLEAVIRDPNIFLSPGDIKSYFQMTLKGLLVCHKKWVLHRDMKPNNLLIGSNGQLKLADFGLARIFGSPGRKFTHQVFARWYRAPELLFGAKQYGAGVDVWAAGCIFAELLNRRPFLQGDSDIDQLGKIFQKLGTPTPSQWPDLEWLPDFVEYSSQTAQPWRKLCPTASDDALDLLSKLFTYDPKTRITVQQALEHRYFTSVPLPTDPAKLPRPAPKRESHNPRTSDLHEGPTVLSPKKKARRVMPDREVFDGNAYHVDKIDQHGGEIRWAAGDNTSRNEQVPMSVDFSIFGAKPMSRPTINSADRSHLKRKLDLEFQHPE
UniProt A0A8F2YJH9: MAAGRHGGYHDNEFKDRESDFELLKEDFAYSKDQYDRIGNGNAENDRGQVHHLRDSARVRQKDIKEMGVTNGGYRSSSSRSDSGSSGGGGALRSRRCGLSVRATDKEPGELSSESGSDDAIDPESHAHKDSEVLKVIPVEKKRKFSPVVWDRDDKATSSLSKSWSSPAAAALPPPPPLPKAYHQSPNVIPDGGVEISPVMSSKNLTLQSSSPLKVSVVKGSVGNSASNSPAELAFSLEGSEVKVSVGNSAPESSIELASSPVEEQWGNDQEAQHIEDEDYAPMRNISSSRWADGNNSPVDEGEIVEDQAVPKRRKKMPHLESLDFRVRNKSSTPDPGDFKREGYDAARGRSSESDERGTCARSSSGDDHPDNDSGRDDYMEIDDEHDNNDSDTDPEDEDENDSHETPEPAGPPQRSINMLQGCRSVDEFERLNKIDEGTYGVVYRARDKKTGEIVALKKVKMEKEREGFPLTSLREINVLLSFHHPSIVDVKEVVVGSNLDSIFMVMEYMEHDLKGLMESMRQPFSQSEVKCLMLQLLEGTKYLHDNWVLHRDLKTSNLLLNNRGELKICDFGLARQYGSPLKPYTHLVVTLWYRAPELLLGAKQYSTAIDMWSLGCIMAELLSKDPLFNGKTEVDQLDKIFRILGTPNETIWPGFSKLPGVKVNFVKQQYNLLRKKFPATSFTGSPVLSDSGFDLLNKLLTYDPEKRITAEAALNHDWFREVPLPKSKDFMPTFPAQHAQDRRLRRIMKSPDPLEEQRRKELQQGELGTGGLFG
UniProt A0A8F2YJJ4: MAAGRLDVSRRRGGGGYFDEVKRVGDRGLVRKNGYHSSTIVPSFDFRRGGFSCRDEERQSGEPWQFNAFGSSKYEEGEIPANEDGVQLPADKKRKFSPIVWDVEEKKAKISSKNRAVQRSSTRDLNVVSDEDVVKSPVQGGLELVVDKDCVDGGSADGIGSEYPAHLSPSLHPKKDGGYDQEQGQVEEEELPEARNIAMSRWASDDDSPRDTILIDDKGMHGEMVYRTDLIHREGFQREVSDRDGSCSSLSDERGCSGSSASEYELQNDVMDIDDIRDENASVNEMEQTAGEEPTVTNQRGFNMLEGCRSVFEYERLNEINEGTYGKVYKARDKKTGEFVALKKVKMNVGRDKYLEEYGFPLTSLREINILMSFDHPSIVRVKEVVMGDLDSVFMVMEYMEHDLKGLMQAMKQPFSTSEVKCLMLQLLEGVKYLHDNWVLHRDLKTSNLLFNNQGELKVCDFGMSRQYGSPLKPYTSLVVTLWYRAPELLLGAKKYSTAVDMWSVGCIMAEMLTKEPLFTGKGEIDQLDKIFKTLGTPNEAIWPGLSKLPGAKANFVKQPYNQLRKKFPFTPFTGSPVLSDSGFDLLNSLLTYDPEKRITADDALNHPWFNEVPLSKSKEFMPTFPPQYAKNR
UniProt A0A8F3BS08: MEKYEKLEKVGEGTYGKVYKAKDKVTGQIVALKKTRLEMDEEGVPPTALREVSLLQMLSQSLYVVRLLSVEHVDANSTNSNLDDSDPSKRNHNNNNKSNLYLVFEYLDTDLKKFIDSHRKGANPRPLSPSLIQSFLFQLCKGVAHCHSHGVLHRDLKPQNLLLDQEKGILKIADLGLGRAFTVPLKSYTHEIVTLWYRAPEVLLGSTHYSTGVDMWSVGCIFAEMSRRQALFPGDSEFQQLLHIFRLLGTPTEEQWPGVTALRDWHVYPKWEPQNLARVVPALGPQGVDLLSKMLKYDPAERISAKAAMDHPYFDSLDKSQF
UniProt A0A8F3BPS4: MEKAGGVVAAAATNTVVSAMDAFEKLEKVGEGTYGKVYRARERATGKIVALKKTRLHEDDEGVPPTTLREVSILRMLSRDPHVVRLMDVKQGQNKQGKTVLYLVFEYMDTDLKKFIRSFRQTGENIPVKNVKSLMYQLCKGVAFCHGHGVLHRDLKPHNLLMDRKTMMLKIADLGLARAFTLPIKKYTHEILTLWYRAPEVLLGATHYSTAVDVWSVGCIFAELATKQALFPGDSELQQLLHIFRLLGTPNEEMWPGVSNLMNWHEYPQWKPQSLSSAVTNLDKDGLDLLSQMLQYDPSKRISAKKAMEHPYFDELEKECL
UniProt A0A8F2YJ26: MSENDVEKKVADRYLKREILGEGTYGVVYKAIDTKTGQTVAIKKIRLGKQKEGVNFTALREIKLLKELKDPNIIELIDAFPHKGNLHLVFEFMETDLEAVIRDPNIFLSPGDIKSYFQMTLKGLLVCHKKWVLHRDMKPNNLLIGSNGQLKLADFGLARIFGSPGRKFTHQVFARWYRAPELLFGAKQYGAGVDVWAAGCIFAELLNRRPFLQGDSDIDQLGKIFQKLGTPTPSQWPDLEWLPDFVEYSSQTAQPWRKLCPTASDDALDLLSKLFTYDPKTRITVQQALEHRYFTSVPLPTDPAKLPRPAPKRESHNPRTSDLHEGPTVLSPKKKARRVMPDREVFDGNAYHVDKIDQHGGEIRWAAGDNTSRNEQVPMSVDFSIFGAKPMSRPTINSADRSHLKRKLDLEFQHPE
UniProt A0A8F2YJ49: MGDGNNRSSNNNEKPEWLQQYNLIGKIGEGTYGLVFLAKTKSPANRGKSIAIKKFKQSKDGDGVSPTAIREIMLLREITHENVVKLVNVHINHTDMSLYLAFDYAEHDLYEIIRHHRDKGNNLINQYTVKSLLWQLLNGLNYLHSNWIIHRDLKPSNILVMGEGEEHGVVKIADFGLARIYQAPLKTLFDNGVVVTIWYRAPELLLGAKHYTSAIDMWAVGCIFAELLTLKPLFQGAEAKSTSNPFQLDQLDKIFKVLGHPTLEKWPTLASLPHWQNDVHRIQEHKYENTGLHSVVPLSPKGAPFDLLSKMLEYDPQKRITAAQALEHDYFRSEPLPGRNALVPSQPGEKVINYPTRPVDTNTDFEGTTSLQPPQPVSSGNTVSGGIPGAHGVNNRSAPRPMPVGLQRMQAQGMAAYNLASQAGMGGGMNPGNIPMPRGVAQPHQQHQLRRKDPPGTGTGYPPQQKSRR
UniProt A0A8F3BQL1: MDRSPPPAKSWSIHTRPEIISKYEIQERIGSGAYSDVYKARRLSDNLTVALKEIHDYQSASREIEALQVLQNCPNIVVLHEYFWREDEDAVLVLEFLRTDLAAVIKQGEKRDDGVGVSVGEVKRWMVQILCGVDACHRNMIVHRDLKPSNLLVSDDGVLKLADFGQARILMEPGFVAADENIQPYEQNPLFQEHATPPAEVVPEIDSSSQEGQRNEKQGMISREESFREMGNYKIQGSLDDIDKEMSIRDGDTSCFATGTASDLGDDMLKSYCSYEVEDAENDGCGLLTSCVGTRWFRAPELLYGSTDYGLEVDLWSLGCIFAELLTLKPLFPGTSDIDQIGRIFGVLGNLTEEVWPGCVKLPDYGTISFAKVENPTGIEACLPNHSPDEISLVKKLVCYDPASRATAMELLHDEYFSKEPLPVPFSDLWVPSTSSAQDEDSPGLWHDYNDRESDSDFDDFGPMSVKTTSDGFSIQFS

Biological target: PtoCYCD3;3 (Populus tomentosa)
Experiment: two-hybrid; PtoCYCD3;3 in pGBKT7 (BD), PtoCDKs in pGADT7 (AD); yeast strain AH109; growth on SD/-Leu/-Trp or SD/-Leu/-Trp/-His/+x-α-gal

Substance | binding
PtoCDKC;2 (from UniProt A0A8F2YJ43) | binds
PtoCDKD;1 (from UniProt A0A8F2YJ19) | binds
PtoCDKG;3 (from UniProt A0A8F2YJH9) | binds
PtoCDKG;4 (from UniProt A0A8F2YJJ4) | binds

Continued, values first:

binding | Substance
binds | PtoCDKB1;2 (from UniProt A0A8F3BS08)
binds | PtoCDKB2;1 (from UniProt A0A8F3BPS4)
binds | PtoCDKD;2 (from UniProt A0A8F2YJ26)
binds | PtoCDKE;2 (from UniProt A0A8F2YJ49)
binds | PtoCDKF;1 (from UniProt A0A8F3BQL1)
